Test results reported in article PMC9964061.

Tests used:
Experiment in all cases: two-hybrid; reciprocal pairwise assays; full-length constructs in pDest-GBKT7 (strain Y2HGold) and pDest-GADT7 (strain Y187)
[1] = biological target: T1, AtHsp90.5 (At2g04030), chloroplast-localized member of the HSP90 family (Arabidopsis thaliana) (UniProt Q9SIF2)
T1 sequence: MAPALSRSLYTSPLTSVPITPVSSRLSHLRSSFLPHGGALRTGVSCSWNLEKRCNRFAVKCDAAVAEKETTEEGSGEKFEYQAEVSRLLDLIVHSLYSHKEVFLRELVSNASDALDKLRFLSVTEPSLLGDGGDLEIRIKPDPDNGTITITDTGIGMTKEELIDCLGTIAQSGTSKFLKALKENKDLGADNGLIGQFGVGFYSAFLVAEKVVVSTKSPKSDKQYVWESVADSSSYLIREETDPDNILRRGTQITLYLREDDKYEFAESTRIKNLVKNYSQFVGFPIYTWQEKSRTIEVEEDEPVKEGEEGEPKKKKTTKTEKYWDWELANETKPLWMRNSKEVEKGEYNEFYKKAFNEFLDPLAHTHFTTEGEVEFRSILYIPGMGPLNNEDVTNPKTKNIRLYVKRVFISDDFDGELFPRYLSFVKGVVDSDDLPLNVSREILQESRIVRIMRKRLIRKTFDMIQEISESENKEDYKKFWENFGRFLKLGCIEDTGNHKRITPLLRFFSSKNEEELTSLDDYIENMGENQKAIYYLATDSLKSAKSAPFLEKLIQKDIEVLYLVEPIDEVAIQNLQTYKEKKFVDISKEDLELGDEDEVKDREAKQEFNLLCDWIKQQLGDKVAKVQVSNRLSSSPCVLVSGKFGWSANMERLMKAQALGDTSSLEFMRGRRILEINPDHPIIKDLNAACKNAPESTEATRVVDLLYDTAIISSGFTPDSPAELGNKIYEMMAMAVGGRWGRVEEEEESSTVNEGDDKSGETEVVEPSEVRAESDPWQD

[2] = biological target: At5g17710 (CHLOROPLAST GRPE 1), full-length coding sequence (Arabidopsis thaliana)
[3] = biological target: At1g36390 (CHLOROPLAST GRPE 2), full-length coding sequence (Arabidopsis thaliana)

At1g36390 (CHLOROPLAST GRPE 2), full-length coding sequence (Arabidopsis thaliana)
binding [1]: no binding

B1: AtHsp90.5 (At2g04030), chloroplast-localized member of the HSP90 family (protein, UniProt Q9SIF2 1-780)
chain: MAPALSRSLYTSPLTSVPITPVSSRLSHLRSSFLPHGGALRTGVSCSWNLEKRCNRFAVKCDAAVAEKETTEEGSGEKFEYQAEVSRLLDLIVHSLYSHKEVFLRELVSNASDALDKLRFLSVTEPSLLGDGGDLEIRIKPDPDNGTITITDTGIGMTKEELIDCLGTIAQSGTSKFLKALKENKDLGADNGLIGQFGVGFYSAFLVAEKVVVSTKSPKSDKQYVWESVADSSSYLIREETDPDNILRRGTQITLYLREDDKYEFAESTRIKNLVKNYSQFVGFPIYTWQEKSRTIEVEEDEPVKEGEEGEPKKKKTTKTEKYWDWELANETKPLWMRNSKEVEKGEYNEFYKKAFNEFLDPLAHTHFTTEGEVEFRSILYIPGMGPLNNEDVTNPKTKNIRLYVKRVFISDDFDGELFPRYLSFVKGVVDSDDLPLNVSREILQESRIVRIMRKRLIRKTFDMIQEISESENKEDYKKFWENFGRFLKLGCIEDTGNHKRITPLLRFFSSKNEEELTSLDDYIENMGENQKAIYYLATDSLKSAKSAPFLEKLIQKDIEVLYLVEPIDEVAIQNLQTYKEKKFVDISKEDLELGDEDEVKDREAKQEFNLLCDWIKQQLGDKVAKVQVSNRLSSSPCVLVSGKFGWSANMERLMKAQALGDTSSLEFMRGRRILEINPDHPIIKDLNAACKNAPESTEATRVVDLLYDTAIISSGFTPDSPAELGNKIYEMMAMAVGGRWGRVEEEEESSTVNEGDDKSGETEVVEPSEVRAESDPWQD
binding [2]: binds
binding [3]: no binding

These are yes or no findings as the source states them, for the method shown. For part of these data: A result given as binding can be weak or reduced; the word gives no strength.
